# In the supplement of paper PMC10077471:
# In all, about 1,900 compounds were measured (“excess over highest single agent (ExcessHSA) synergy score, 6x6 matrix”: median about -83, lowest 2% from about -370 on). The list shows a part of the results.
# Tested on: NCI-H446
# Assay: excess over highest single agent (ExcessHSA) synergy score, 6x6 matrix; higher = less synergy (more negative = stronger synergy)
# Conditions: 72 h; CellTiter-Glo viability
row,Compound,excess over highest single agent
1,NC(=O)c1ccc(-c2nc(-c3ccccn3)c(-c3ccc4c(c3)OCO4)[nH]2)cc1 + Cc1sc2c(c1C)C(c1ccc(Cl)cc1)=N[C@@H](CC(=O)OC(C)(C)C)c1nnc(C)n1-2 [NCGC00250412-19],70.1
2,Cc1c(-c2cccc3c(CCCOc4cccc5ccccc45)c(C(=O)O)n(Cc4cccnc4)c23)c(COc2ccc(N3CCN([S+](=O)([O-])N(C)C)CC3)cc2)nn1C + Cc1sc2c(c1C)C(c1ccc(Cl)cc1)=N[C@@H](CC(=O)OC(C)(C)C)c1nnc(C)n1-2 [NCGC00250412-19],-37.3
3,C/C(=C\c1csc(C)n1)[C@@H]1C[C@@H]2O[C@]2(C)CCC[C@H](C)[C@H](O)[C@@H](C)C(=O)C(C)(C)[C@@H](O)CC(=O)O1 + Cc1sc2c(c1C)C(c1ccc(Cl)cc1)=N[C@@H](CC(=O)OC(C)(C)C)c1nnc(C)n1-2 [NCGC00250412-19],-148
4,C[C@@H](O[C@H]1OCCN(Cc2n[nH]c(=O)[nH]2)[C@H]1c1ccc(F)cc1)c1cc(C(F)(F)F)cc(C(F)(F)F)c1 + Cc1sc2c(c1C)C(c1ccc(Cl)cc1)=N[C@@H](CC(=O)OC(C)(C)C)c1nnc(C)n1-2 [NCGC00250412-19],-167
5,C=C[C@H]1CN2CC[C@H]1C[C@@H]2[C@@H](O)c1ccnc2ccccc12 + Cc1sc2c(c1C)C(c1ccc(Cl)cc1)=N[C@@H](CC(=O)OC(C)(C)C)c1nnc(C)n1-2 [NCGC00250412-19],31.1
6,CCCNC(=O)Nc1ccc(Oc2ncnc3cc(OC)c(OC)cc23)cc1Cl + Cc1sc2c(c1C)C(c1ccc(Cl)cc1)=N[C@@H](CC(=O)OC(C)(C)C)c1nnc(C)n1-2 [NCGC00250412-19],-41.2
7,CN(C)C(=O)[C@H](O)[C@H](Cc1ccccc1)NC(=O)c1cc2cc(Cl)ccc2[nH]1 + Cc1sc2c(c1C)C(c1ccc(Cl)cc1)=N[C@@H](CC(=O)OC(C)(C)C)c1nnc(C)n1-2 [NCGC00250412-19],121
8,Cc1cc(CN2CCN(c3c(Br)cnc4nc(-c5ccc(N6CCN(C)CC6)cc5)[nH]c34)CC2)no1 + Cc1sc2c(c1C)C(c1ccc(Cl)cc1)=N[C@@H](CC(=O)OC(C)(C)C)c1nnc(C)n1-2 [NCGC00250412-19],-107
9,CC(C)CC(N(C)C)C1(c2ccc(Cl)cc2)CCC1 (stereo not given) + Cc1sc2c(c1C)C(c1ccc(Cl)cc1)=N[C@@H](CC(=O)OC(C)(C)C)c1nnc(C)n1-2 [NCGC00250412-19],-129
10,COCCCN1CCC(NC(=O)c2cc(Cl)c(N)c3c2OCC3)CC1 + Cc1sc2c(c1C)C(c1ccc(Cl)cc1)=N[C@@H](CC(=O)OC(C)(C)C)c1nnc(C)n1-2 [NCGC00250412-19],-101
11,C[C@@H](O)[C@@H]1NC(=O)[C@H](CCCCN)NC(=O)[C@@H](Cc2c[nH]c3ccccc23)NC(=O)[C@H](Cc2ccccc2)NC(=O)[C@@H](NC(=O)[C@H](N)Cc2ccccc2)CSSC[C@@H](C(=O)N[C@H](CO)[C@@H](C)O)NC1=O + Cc1sc2c(c1C)C(c1ccc(Cl)cc1)=N[C@@H](CC(=O)OC(C)(C)C)c1nnc(C)n1-2 [NCGC00250412-19],-219
12,C[C@H](CCC(=O)O)[C@H]1CC[C@H]2[C@@H]3[C@@H](O)C[C@@H]4C[C@H](O)CC[C@]4(C)[C@H]3CC[C@]12C + Cc1sc2c(c1C)C(c1ccc(Cl)cc1)=N[C@@H](CC(=O)OC(C)(C)C)c1nnc(C)n1-2 [NCGC00250412-19],-19.3
13,CCNc1cc(NC2CCC(O)CC2)nc(Nc2ccc3c(ccn3Cc3ccccc3)c2)n1 (stereo not given) + Cc1sc2c(c1C)C(c1ccc(Cl)cc1)=N[C@@H](CC(=O)OC(C)(C)C)c1nnc(C)n1-2 [NCGC00250412-19],-94
14,Cc1ccc(F)c(NC(=O)Nc2ccc(-c3cccc4[nH]nc(N)c34)cc2)c1 + Cc1sc2c(c1C)C(c1ccc(Cl)cc1)=N[C@@H](CC(=O)OC(C)(C)C)c1nnc(C)n1-2 [NCGC00250412-19],-96.9
15,CCC(=C/[C@H](C)C/C=C/C(C)=C/[C@@H](C)C(=O)[C@@H](C)[C@H](O)[C@@H](C)C/C(C)=C/C(=O)O)/C=C/[C@@H]1OC(=O)C=C[C@@H]1C + Cc1sc2c(c1C)C(c1ccc(Cl)cc1)=N[C@@H](CC(=O)OC(C)(C)C)c1nnc(C)n1-2 [NCGC00250412-19],-29.3
16,CC(C)OC(=O)C1=CN(C(=O)c2ccc(F)c(F)c2)CC(C)(C)c2c1[nH]c1ccccc21 + Cc1sc2c(c1C)C(c1ccc(Cl)cc1)=N[C@@H](CC(=O)OC(C)(C)C)c1nnc(C)n1-2 [NCGC00250412-19],-106
17,COC(=O)[C@@H]1CC2=CC(=O)CC[C@]2(C)[C@@]23O[C@@H]2C[C@@]2(C)[C@@H](CC[C@@]24CCC(=O)O4)[C@H]13 + Cc1sc2c(c1C)C(c1ccc(Cl)cc1)=N[C@@H](CC(=O)OC(C)(C)C)c1nnc(C)n1-2 [NCGC00250412-19],47.5
18,NC(=O)c1nnn(Cc2cc(Cl)c(C(=O)c3ccc(Cl)cc3)c(Cl)c2)c1N + Cc1sc2c(c1C)C(c1ccc(Cl)cc1)=N[C@@H](CC(=O)OC(C)(C)C)c1nnc(C)n1-2 [NCGC00250412-19],-2.84

row,Compound,excess over highest single agent
1,CC(C)(C)[N+]([O-])=Cc1ccc(S(=O)(=O)O)cc1S(=O)(=O)O + Cc1sc2c(c1C)C(c1ccc(Cl)cc1)=N[C@@H](CC(=O)OC(C)(C)C)c1nnc(C)n1-2 [NCGC00250412-19],-60
2,Cc1ccc(NC(=O)c2cccc(C(C)(C)C#N)c2)cc1Nc1ccc2ncn(C)c(=O)c2c1 + Cc1sc2c(c1C)C(c1ccc(Cl)cc1)=N[C@@H](CC(=O)OC(C)(C)C)c1nnc(C)n1-2 [NCGC00250412-19],98.6
3,OCCN(CCO)c1nc(N2CCCCC2)c2nc(N(CCO)CCO)nc(N3CCCCC3)c2n1 + Cc1sc2c(c1C)C(c1ccc(Cl)cc1)=N[C@@H](CC(=O)OC(C)(C)C)c1nnc(C)n1-2 [NCGC00250412-19],73.2
4,CC[C@H](CO)Nc1nc(NCc2ccccc2)c2ncn(C(C)C)c2n1 + Cc1sc2c(c1C)C(c1ccc(Cl)cc1)=N[C@@H](CC(=O)OC(C)(C)C)c1nnc(C)n1-2 [NCGC00250412-19],-86
5,CN(c1nccc(=O)[nH]1)C1CCN(c2nc3ccccc3n2Cc2ccc(F)cc2)CC1 + Cc1sc2c(c1C)C(c1ccc(Cl)cc1)=N[C@@H](CC(=O)OC(C)(C)C)c1nnc(C)n1-2 [NCGC00250412-19],-37.9
6,C[N+](C)(C)CC(=O)O + Cc1sc2c(c1C)C(c1ccc(Cl)cc1)=N[C@@H](CC(=O)OC(C)(C)C)c1nnc(C)n1-2 [NCGC00250412-19],11.6
7,O=c1[nH]c2ccccc2n1CCCN1CCC(n2c(=O)[nH]c3cc(Cl)ccc32)CC1 + Cc1sc2c(c1C)C(c1ccc(Cl)cc1)=N[C@@H](CC(=O)OC(C)(C)C)c1nnc(C)n1-2 [NCGC00250412-19],-247
8,CC(C)OC(=O)OCOP(=O)(CO[C@H](C)Cn1cnc2c(N)ncnc21)OCOC(=O)OC(C)C + Cc1sc2c(c1C)C(c1ccc(Cl)cc1)=N[C@@H](CC(=O)OC(C)(C)C)c1nnc(C)n1-2 [NCGC00250412-19],-70.6
9,C#C[C@]1(O)CC[C@H]2[C@@H]3CCC4=CC(=O)CC[C@]4(C)[C@H]3CC[C@@]21C + Cc1sc2c(c1C)C(c1ccc(Cl)cc1)=N[C@@H](CC(=O)OC(C)(C)C)c1nnc(C)n1-2 [NCGC00250412-19],-97.6
10,COc1cc(-c2nn([C@H]3CC[C@H](N4CCN(C(C)=O)CC4)CC3)c3ncnc(N)c23)ccc1NC(=O)c1cc2ccccc2n1C + Cc1sc2c(c1C)C(c1ccc(Cl)cc1)=N[C@@H](CC(=O)OC(C)(C)C)c1nnc(C)n1-2 [NCGC00250412-19],-41.2
11,CC(C)[C@H](CO)Nc1nc(Nc2ccc(C(=O)O)c(Cl)c2)c2ncn(C(C)C)c2n1 + Cc1sc2c(c1C)C(c1ccc(Cl)cc1)=N[C@@H](CC(=O)OC(C)(C)C)c1nnc(C)n1-2 [NCGC00250412-19],41.5
12,C[C@@H]1[C@@H](C(=O)C[C@H]2O[C@@H]3O[C@]4(C)CC[C@@H]5[C@H](C)CC[C@@H]([C@H]2C)[C@@]35OO4)O[C@@H]2O[C@]3(C)CC[C@H]4[C@H](C)CC[C@@H]1[C@@]24OO3 + Cc1sc2c(c1C)C(c1ccc(Cl)cc1)=N[C@@H](CC(=O)OC(C)(C)C)c1nnc(C)n1-2 [NCGC00250412-19],-355
13,CNC(=O)c1ccc2c(C(=Nc3cccc(CN(C)C)c3)c3ccccc3)c(O)[nH]c2c1 + Cc1sc2c(c1C)C(c1ccc(Cl)cc1)=N[C@@H](CC(=O)OC(C)(C)C)c1nnc(C)n1-2 [NCGC00250412-19],93.9
14,Cc1ccccc1C(C(=O)NC1CCCCC1)N(C(=O)CNc1ccc(C#N)cc1)c1cccc(F)c1 (stereo not given) + Cc1sc2c(c1C)C(c1ccc(Cl)cc1)=N[C@@H](CC(=O)OC(C)(C)C)c1nnc(C)n1-2 [NCGC00250412-19],-209
15,C=CC1=C(C(=O)O)N2C(=O)[C@@H](NC(=O)/C(=N\O)c3csc(N)n3)[C@H]2SC1 + Cc1sc2c(c1C)C(c1ccc(Cl)cc1)=N[C@@H](CC(=O)OC(C)(C)C)c1nnc(C)n1-2 [NCGC00250412-19],3.02
16,OCc1ccccc1O[C@@H]1O[C@H](CO)[C@@H](O)[C@H](O)[C@H]1O + Cc1sc2c(c1C)C(c1ccc(Cl)cc1)=N[C@@H](CC(=O)OC(C)(C)C)c1nnc(C)n1-2 [NCGC00250412-19],-65.5
17,O=C1NC(O)CCN1[C@@H]1O[C@H](CO)[C@@H](O)[C@H]1O (stereo not given in full) + Cc1sc2c(c1C)C(c1ccc(Cl)cc1)=N[C@@H](CC(=O)OC(C)(C)C)c1nnc(C)n1-2 [NCGC00250412-19],-122

# Quoted at random: 2 entries already listed, in no set order.
row,Compound,excess over highest single agent
16,CC(C)OC(=O)C1=CN(C(=O)c2ccc(F)c(F)c2)CC(C)(C)c2c1[nH]c1ccccc21 + Cc1sc2c(c1C)C(c1ccc(Cl)cc1)=N[C@@H](CC(=O)OC(C)(C)C)c1nnc(C)n1-2 [NCGC00250412-19],-106
16,OCc1ccccc1O[C@@H]1O[C@H](CO)[C@@H](O)[C@H](O)[C@H]1O + Cc1sc2c(c1C)C(c1ccc(Cl)cc1)=N[C@@H](CC(=O)OC(C)(C)C)c1nnc(C)n1-2 [NCGC00250412-19],-65.5
